In paper doi:10.1101/2023.06.21.545928:
No constants are given. Whether binding was seen depends on the method and setting. Binding seen in cells or lysates may run through a third protein. Some binding calls cover weakened binding; strength is not graded here.

Amino acid sequences for entries named in this document (tags omitted). A change or cut given only in a name is not applied to a line headed by its entry. Residues count along the entry.
UniProt P25963, whole entry: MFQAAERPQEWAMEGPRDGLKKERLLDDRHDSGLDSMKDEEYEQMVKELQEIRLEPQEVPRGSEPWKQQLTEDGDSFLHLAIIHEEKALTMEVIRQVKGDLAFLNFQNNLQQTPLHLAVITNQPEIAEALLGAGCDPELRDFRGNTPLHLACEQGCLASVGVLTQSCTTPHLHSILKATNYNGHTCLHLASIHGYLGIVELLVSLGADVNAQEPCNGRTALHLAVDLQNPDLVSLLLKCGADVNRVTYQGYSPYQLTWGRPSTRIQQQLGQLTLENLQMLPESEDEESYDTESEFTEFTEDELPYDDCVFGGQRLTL
UniProt P19838, 1-433: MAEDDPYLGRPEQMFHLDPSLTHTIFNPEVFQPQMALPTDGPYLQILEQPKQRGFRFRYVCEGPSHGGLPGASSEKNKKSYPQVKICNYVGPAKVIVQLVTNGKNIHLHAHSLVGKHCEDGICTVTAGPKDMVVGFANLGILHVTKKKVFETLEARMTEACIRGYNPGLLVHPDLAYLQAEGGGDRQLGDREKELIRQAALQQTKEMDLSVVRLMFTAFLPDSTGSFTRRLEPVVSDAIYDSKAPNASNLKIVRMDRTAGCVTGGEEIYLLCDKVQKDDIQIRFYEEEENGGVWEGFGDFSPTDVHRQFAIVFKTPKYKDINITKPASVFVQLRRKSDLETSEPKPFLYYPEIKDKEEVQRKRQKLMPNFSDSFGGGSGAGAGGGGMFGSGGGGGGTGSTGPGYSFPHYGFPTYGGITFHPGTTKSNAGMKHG
UniProt Q04206, whole entry: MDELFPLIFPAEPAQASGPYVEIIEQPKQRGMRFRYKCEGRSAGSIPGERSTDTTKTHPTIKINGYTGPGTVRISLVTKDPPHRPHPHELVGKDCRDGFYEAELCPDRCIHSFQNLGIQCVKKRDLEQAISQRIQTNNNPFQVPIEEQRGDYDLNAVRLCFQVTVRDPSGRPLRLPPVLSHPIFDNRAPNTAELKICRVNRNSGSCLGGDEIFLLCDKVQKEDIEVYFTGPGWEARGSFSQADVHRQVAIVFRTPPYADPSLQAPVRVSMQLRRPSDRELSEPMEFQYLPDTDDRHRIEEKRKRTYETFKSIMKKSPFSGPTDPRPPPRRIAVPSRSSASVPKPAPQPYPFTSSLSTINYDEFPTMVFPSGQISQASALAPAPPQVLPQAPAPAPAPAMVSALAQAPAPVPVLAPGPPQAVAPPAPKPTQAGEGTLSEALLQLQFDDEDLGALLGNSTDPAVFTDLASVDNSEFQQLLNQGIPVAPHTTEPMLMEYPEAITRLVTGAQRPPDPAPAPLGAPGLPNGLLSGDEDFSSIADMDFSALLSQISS

How the values were obtained:
Assay in all cases: co-IP
[1] = target: HA-IκBα H84A, E85A, E86A compose mutant (M3) (human) (UniProt P25963)
[2] = target: IκBα N108A from IκBα knock-in HCT116 cells (human) (UniProt P25963)
[3] = target: IκBα N108A single point mutant (human) (UniProt P25963)
[4] = target: HA-IκBα H84A, E85A, E86A, N108A, Q112A compose mutant (human) (UniProt P25963)
[5] = target: IκBα/β-mimic (HEE to HQH), ectopically expressed (human) (UniProt P25963)
[6] = target: IκBα/β-mimic (HEE to HQH) from IκBα knock-in HCT116 cells (human) (UniProt P25963)
[7] = target: IκBα D75A single point mutant (human) (UniProt P25963)
[8] = target: IκBα WT from IκBα knock-in HCT116 cells (human) (UniProt P25963)

binding [1] | binding [2] | binding [3] | binding [4] | binding [5] | binding [6] | binding [7] | binding [8] | Substance
binds | no binding | no binding | no binding | binds | binds | no binding | binds | NF-κB p50, endogenous (from UniProt P19838)
binds | no binding | no binding | no binding | binds | binds | no binding | – | NF-κB/p65, endogenous (from UniProt Q04206 1-551)
